Measurements taken from PMC6591397, “Functional Roles of Metabolic Intermediates in Regulating the Human Mitochondrial NAD(P)^+-Dependent Malic Enzyme” (Scientific Reports, 2019).

Test system: human m-NAD(P)-ME WT and the exosite mutants
Experiment: Size distribution analysis by analytical ultracentrifugation of WT and exosite mutants, protein only, with NAD+ or with ATP
Type: binding
Details: for Kd,12(NAD)/Kd,12 / Kd,24(NAD)/Kd,24: with 0.4 mM NAD+ vs protein only; for Kd,12(ATP)/Kd,12 / Kd,24(ATP)/Kd,24: with 0.5 mM ATP vs protein only
Method: Size distribution of the monomer-dimer-tetramer equilibrium of the enzyme was monitored using a Beckman Optima XL-A analytical ultracentrifuge instrument. A protein sample (380 µl) and reference buffer (400 µl) were loaded into a well-assembled cell with a double-sector centerpiece. Experiments were performed with an An-50Ti rotor at 42,000 rpm and 20 °C for 3 to 4 hours. The scans for sedimentation velocity data were monitored by the UV absorbance at 280 nm with a 480 s interval time and a 0.002 cm step size in continuous distribution mode. Using the SEDFIT 9.4c software[31]–[34], the size distribution of the enzyme was analyzed with a resolution corresponding to N = 200 to cover the range of sedimentation coefficient (S) values from approximately 0.1 to 20, a confidence level of p = 0.95, and a best-fit average anhydrous frictional ratio (f/f0). The dissociation constants of monomer-dimer-tetramer self-association model were globally analyzed by using the SEDPHAT software.
All sedimentation velocity data were globally fitted by a monomer-dimer-tetramer equilibrium model by the software program of SEDPHAT[34]. The parameters protein partial specific volume, solvent density and viscosity were calculated with the […] software program.
Figure 4 Continuous sedimentation coefficient distribution of human m-NAD(P)-ME WT and the exosite mutants. The enzyme concentrations were fixed at 1.6, 4.7, and 14.2 μM in PBS. […] (a) ME2_WT; (b) ME2_H154V; (c) ME2_K156A; (d) ME2_G192A; (e) ME2_R194N; (f) ME2_R197E; (g) ME2_R197D.
Figure 5 Continuous sedimentation coefficient distribution of human m-NAD(P)-ME WT and the exosite mutants. The enzyme concentrations were fixed at 1.6, 4.7, and 14.2 μM in PBS. […] (a) ME2_N482G; (b) ME2_N482A; (c) ME2_R542V; (d) ME2_Y552F; (e) ME2_R556Q; (f) ME2_R556V.

Substance | Kd,12(NAD)/Kd,12 | Kd,12(ATP)/Kd,12 | Kd,24(NAD)/Kd,24 | Kd,24(ATP)/Kd,24
R197E: exosite mutant of human m-NAD(P)-ME | 3.3 | 3.3 |  | 
R556Q: exosite mutant of human m-NAD(P)-ME | 18.0 | 40.0 |  | 
N482A: exosite mutant of human m-NAD(P)-ME | 2.0 |  |  | 
WT: wild-type human mitochondrial NAD(P)+-dependent malic enzyme (ME2), recombinant from E. coli | 2.8 | 2.7 | 0.14 | 7.8
R542V: exosite mutant of human m-NAD(P)-ME | 187.0 | 2.0 |  | 22.4
R194N: exosite mutant of human m-NAD(P)-ME | 0.5 | 0.3 | 0.2 | 6.3
R556V: exosite mutant of human m-NAD(P)-ME | 4.6 | 15.6 |  | 
G192A: exosite mutant of human m-NAD(P)-ME | 0.7 | 2.3 |  | 1.3
H154V: exosite mutant of human m-NAD(P)-ME | 2.3 | 15.3 | 0.3 | 8.7
K156A: exosite mutant of human m-NAD(P)-ME | 11.3 | 2.7 | 0.3 | 2.5
N482G: exosite mutant of human m-NAD(P)-ME | 7.6 | 2.0 | 0.2 | 
R197D: exosite mutant of human m-NAD(P)-ME | 0.1 | 0.9 |  | 
